These are yes or no findings as the source states them, for the method shown. Some entries that bind do so weakly or less than the wild type. Tags and fused reporters may be left off the sequences shown.

Assay [1] deals with T1, IL-31-CEE (purified recombinant human IL-31 fused at the C-terminal with the peptide EYMPME, produced in BHK cells) (human) (UniProt Q6EBC2).
T1 sequence: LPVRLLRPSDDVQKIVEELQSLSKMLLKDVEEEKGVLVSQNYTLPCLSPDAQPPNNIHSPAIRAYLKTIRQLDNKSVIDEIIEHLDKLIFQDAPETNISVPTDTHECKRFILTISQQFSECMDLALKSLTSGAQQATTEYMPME
In words: ELISA on plate bound IL-31-CEE, clone supernatants.

Assay [2] addresses T1, IL-31-CEE (purified recombinant human IL-31 fused at the C-terminal with the peptide EYMPME, produced in BHK cells) (human). Kind of assay: plate based affinity ELISA, captured mAb, biotinylated rIL31-CEE. (ELISA stands for enzyme-linked immunosorbent assay.)
For assay [3] the target is unchanged. In words: Western blot on non-reduced/denatured rIL31-CEE.

B1: mouse anti-human IL-31 mAb 292.72.3.1 (antibody, mouse IgG2a, V domains shown)
VH: QVQVQQSGAELARPGASVKLSCKASGYTLTRYWMQWVKQRPGQGLEWIGAIYPRDGDTRYSQKFKGKATLTADKSSTTAYMQLSSLASEDSAVYYCAYPDGSYAAPNGMEYWGQGSSVTVSS
VL: DIQMSQSPASLSASVGETVTITCRASGSIHNYLAWYQQKQGKSPQLLVYNAETLADGVPSRFSGSGSGTQYSLKISSLQPEDFGTYYCQHFWITPWTFGGGTKLEIK
Consider B1, for which the binding entry in assay [1] and in assay [2] was “binds” each time.

B2: mouse anti-human IL-31 mAb 292.84.1.6 (antibody, V domains shown)
VH: QVQLQQSGAELARPGASVNLSCKASGYTLTRYWMQWVKQRPGQGLEWIGTIYPGDGDTRYSQKFKGKASLTADKSSNTAYMQLNNLASEDSAVYFCAFPDGYYAAPYGMDYWGQGTSVTVSS
VL: DIQMTQSPASLSASVGETVTITCRASGNIHNYLAWYQQKQGRSPQLLVYNAKTLADGVPSRFSGSRSETQYSLKINSLQPEDFGSYYCQHFWSTPWTFGGGTKLEIK
On to B2, for which the binding entry in assay [1], in assay [3] and in assay [2] was “binds” each time.

B3: mouse anti-human IL-31 mAb 292.51.5.2 (antibody, mouse IgG1, V domains shown)
VH: EVQLVESGGDLVKPGGSLKLSCAASGFTFSSFVMSWVRQSPEKRLEWVATINSGGYYSFHPDSVKGRFTISRDNAKNTLYLQMSSLRSEDTAIYYCARQEGWSSAYFSYWGQGTLVTVSA
VL: DIVMTQSPSSLAMSVGQKVTMICKSSQSLLNSSNQKNYLAWYQQKPGHSPKLLVSFTSTRESGVPDRFIGSGSGTDFTLTITNMQAEDLADYFCQQHYDTPYTFGGGTKLEIR
Take B3: the binding entry in assay [1] and in assay [2] was “binds” each time.

For the origin of these results see patent US20190144533A1.
